Assay results as given in paper PMC10238197, “Deafness‐Associated ADGRV1 Mutation Impairs USH2A Stability through Improper Phosphorylation of WHRN and WDSUB1 Recruitment” (Advanced Science, 2023).
Changes are numbered by the printed parent chain. These are yes or no findings as the source states them, for the method shown. Binding seen in cells or lysates may run through a third protein. Some binding calls cover weakened binding; strength is not graded here. Where a sequence is shown, tags or fusion partners need not be part of it.

Protein sequences, listed by entry. Tags and fused reporters are not part of them. Residues count along the entry.
UniProt Q8VHN7, residues 4333-6298: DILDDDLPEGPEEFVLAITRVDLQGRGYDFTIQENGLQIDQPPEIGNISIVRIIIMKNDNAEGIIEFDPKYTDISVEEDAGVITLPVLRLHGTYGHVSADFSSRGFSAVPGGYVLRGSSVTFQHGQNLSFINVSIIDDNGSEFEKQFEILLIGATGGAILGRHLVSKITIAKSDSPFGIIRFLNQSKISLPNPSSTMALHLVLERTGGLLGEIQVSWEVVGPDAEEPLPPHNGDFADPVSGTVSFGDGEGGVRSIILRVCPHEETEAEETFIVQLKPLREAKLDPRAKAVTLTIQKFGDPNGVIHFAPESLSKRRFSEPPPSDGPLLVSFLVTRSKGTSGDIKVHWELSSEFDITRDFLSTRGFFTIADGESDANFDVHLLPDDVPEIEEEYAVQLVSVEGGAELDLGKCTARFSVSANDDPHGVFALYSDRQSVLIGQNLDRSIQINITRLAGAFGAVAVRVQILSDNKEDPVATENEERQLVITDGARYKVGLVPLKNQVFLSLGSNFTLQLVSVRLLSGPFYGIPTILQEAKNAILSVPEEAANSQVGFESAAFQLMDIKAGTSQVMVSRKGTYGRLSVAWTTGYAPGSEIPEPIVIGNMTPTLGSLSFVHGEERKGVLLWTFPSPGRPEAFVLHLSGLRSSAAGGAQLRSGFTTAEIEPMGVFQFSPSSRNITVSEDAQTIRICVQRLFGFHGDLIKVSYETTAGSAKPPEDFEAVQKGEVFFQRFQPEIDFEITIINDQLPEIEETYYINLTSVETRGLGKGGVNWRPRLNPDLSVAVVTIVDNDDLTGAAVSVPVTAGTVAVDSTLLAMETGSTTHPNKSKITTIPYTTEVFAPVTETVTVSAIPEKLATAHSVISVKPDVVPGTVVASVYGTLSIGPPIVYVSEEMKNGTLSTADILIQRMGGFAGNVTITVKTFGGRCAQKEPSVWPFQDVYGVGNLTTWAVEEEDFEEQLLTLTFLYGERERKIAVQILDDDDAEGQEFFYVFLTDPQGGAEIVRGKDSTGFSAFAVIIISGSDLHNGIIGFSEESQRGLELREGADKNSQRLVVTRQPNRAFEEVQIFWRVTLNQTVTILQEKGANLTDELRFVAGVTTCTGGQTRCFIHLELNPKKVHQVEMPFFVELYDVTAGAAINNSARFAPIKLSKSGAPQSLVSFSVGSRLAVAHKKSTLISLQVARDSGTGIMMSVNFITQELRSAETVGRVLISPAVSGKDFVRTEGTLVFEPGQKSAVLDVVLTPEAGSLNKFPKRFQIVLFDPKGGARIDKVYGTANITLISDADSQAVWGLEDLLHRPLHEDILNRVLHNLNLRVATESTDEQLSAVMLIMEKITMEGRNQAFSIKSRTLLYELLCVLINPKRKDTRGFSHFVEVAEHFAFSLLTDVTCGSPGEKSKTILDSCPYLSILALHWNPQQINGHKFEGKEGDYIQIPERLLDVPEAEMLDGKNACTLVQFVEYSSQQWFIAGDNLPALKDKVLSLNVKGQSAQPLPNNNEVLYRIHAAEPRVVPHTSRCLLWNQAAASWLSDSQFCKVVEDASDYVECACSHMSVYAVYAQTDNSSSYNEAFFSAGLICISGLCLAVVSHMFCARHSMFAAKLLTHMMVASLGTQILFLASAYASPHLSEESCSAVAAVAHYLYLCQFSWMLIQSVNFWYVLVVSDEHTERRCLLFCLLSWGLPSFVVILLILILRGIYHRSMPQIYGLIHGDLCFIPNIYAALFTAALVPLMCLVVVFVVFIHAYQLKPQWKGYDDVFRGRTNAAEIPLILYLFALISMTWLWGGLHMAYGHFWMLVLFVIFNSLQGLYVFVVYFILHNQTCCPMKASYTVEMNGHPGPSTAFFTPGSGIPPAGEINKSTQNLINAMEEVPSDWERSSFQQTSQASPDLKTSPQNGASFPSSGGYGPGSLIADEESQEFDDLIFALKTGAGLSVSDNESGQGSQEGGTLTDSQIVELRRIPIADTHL

Tests used:
Assay in all cases: FRET or BRET; intermolecular FlAsH-BRET saturation in HEK293 cells: fixed amount of WHRN-Nluc, increasing ADGRV1-FlAsH or USH2A-FlAsH; 2.5 µM FlAsH-EDT2, 5 µM coelenterazine-h; net BRET Em530/Em485
WHRN-Nluc Z2-L (mouse) = molecular target: T1, WHRN-Nluc Z2-L (mouse) (UniProt Q80VW5)
T1 sequence: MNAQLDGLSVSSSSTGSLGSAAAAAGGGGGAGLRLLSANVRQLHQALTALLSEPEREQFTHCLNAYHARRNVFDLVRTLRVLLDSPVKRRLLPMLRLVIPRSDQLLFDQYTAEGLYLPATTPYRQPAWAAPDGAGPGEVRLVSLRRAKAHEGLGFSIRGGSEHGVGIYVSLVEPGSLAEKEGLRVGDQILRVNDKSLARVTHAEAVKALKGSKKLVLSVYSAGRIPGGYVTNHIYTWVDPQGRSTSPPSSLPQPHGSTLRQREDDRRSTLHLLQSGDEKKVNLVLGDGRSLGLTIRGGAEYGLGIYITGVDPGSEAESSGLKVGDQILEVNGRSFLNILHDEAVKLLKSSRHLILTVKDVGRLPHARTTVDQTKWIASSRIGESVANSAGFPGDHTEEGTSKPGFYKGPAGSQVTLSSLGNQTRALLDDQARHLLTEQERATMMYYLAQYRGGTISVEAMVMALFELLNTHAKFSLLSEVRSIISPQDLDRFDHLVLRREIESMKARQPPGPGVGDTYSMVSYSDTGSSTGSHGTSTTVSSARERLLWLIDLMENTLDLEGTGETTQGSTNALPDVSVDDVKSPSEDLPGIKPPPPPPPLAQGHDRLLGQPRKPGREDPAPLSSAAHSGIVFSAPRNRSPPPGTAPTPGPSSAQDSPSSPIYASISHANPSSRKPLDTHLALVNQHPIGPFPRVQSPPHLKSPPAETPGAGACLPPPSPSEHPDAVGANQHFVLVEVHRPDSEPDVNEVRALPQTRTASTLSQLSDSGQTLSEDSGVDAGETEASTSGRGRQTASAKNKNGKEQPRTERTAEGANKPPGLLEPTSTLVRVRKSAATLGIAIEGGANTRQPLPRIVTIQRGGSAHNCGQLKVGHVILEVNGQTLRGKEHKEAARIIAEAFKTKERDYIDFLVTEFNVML

WHRN-Nluc L-Z3 (mouse) = molecular target: T2, WHRN-Nluc L-Z3 (mouse) (UniProt Q80VW5)
T2 sequence: T1 sequence

[1] = molecular target: T3, WHRN-Nluc (L-Z2) K348A (mouse) (UniProt Q80VW5)
T3 sequence: T1 sequence with K348A

- binding (WHRN-Nluc Z2-L (mouse)): binds
- binding (WHRN-Nluc L-Z3 (mouse)): binds
- binding [1]: binds
Substance: ADGRV1-ICL3-FlAsH (from UniProt Q8VHN7 4333-6298) (receptor)
